Data: paper PMC4695042
These are yes or no findings as the source states them, for the method shown. In cells and extracts the contact can be indirect. For some assays here: Binding calls can cover weak binding; strength is not graded here.

By UniProt entry, the sequences of proteins in these tests, tags left out. Where a name states a change or a piece, a line headed by the entry shows the natural chain unless it says otherwise.
UniProt Q7L5N1: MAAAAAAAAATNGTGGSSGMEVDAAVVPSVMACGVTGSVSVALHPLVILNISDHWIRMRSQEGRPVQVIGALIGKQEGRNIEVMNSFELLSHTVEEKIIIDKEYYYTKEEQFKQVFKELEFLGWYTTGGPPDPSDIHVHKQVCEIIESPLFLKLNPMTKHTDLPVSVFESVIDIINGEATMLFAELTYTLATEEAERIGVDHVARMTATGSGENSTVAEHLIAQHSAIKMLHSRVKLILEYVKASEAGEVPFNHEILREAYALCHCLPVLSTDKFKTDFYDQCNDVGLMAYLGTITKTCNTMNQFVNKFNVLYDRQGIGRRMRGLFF
UniProt Q05086: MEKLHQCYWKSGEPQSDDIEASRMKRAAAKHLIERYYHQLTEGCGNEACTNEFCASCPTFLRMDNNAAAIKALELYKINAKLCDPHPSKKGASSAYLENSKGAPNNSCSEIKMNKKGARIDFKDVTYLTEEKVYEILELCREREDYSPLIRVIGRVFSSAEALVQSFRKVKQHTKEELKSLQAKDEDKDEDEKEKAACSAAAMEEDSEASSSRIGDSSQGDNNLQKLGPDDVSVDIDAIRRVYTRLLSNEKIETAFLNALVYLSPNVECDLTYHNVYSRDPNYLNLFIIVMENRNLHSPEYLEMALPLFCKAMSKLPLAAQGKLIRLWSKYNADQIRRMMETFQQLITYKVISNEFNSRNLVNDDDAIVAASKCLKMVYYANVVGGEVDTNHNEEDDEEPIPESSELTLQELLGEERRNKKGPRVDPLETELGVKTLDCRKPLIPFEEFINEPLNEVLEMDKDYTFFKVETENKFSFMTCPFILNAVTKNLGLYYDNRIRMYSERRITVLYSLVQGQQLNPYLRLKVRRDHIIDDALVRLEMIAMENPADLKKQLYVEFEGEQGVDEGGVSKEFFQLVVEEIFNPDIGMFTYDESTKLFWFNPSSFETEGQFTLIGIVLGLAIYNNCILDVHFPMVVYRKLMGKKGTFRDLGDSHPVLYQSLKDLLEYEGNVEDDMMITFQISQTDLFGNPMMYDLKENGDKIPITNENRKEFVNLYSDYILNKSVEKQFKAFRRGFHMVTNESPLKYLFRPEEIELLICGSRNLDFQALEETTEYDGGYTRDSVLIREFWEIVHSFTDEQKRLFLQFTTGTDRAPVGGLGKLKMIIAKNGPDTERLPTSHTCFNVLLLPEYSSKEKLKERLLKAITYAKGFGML

Assays:
[1] = target: Flag-CSN6 C-terminus (aa 185-327) (UniProt Q7L5N1); assay: co-IP; Flag-CSN6 (aa 1-327), N-terminus or C-terminus transfected into HeLa cells; lysates immunoprecipitated with anti-Flag, immunoblotted with anti-E6AP (endogenous E6AP)
[2] = target: Flag-CSN6 N-terminus (aa 1-184) (UniProt Q7L5N1); assay: as above

## E6-associated protein (E6AP/UBE3A), endogenous (from UniProt Q05086 1-875)
[1]
  binding: no binding
[2]
  binding: binds
